# Source: the supplement of paper PMC10735217
# “And” between values parts separate entries of the source, which are not always exact repeats. Equal entries are not always repeated. Structures can show the parent of a compound that is named as a salt. The list shows a part of the results. Repeats in this data set agree poorly, so a single value says little.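 In a drug-repurposing library screen, luminescence reads luciferase driven by eight TEAD-binding elements, stably integrated into human kidney-derived cells. Compounds scoring over five robust Z scores above the plate mean are called hits.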
# Tested on: HEK293A TEAD-LUC reporter
# Assay: TEAD-luciferase reporter activity (YAP activation), robust Z score vs plate; higher = stronger YAP/TEAD activation
# Details: 24 h
Compound,TEAD-luciferase reporter activity (compound concentration: 200 nM),TEAD-luciferase reporter activity (compound concentration: 2 uM),TEAD-luciferase reporter activity (compound concentration: 10 uM)
O=C(NO)c1ccc(C2=Nc3ccccc3Oc3ccccc32)cc1,inactive: -0.13,active: 9.2,active: 22.7
CC(C)Oc1cc(Nc2nc(N[C@@H](C)c3ccc(F)cc3)c(C#N)cc2F)[nH]n1,inactive: -1.34 and inactive: -0.53,inactive: -1.57 and inactive: -1.11,inactive: -1.88 and inactive: 1.15
CN1CCC(CN2c3ccccc3Sc3ccccc32)C1 (stereo not given) [Methdilazine Hydrochloride],inactive: -0.635,inactive: -0.0405,inactive: 2.32
COCc1nn2c(CN3C[C@@H](CC(F)(F)Cl)CC3=O)c(C(F)(F)F)nc2s1 [Padsevonil],inactive: 0.31,,inactive: 1.47
Cc1ccc(O)c(NCCCN2CCN(C(c3ccc(F)cc3)c3ccc(F)cc3)CC2)c1,inactive: -0.164,inactive: 1.06,inactive: -0.174
COc1ccccc1OC(=O)C(C)c1ccc(CC(C)C)cc1 (stereo not given) [methoxybutropate],inactive: 1.43,inactive: 0.987,inactive: -1.02
COCCCc1ccc2oc(-c3ccc(OC)c(OC)c3)cc2c1,inactive: -0.258,inactive: -0.316,inactive: 1.5
CC1CCCCN1CCCOC(=O)c1ccccc1 (stereo not given),inactive: -0.994,inactive: -0.266,inactive: -0.188
CCCCOc1cc(CC2CNC(=O)N2)ccc1OC (stereo not given),inactive: -1.17,inactive: 0.38,inactive: 0.588
O=C(O[C@@H]1Cc2c(O)cc(O)cc2O[C@@H]1c1cc(O)c(O)c(O)c1)c1cc(O)c(O)c(O)c1 [Epigallocatechin gallate989-51-5],inactive: 0.223,,inactive: 1.22
O=C(O)[C@@H]1C[C@@H](Cc2cccc(F)c2)CN1,inactive: 1.34,inactive: -0.231,inactive: 2.03
CC1(C)N=C(N)N=C(N)N1OCc1ccc(Cl)c(Cl)c1,inactive: -0.415,inactive: -1.23,inactive: 0.694
COc1ccc(-c2ccc3cc(C(=O)O)ccc3c2)cc1C12CC3CC(CC(C3)C1)C2 [Adapalene],inactive: -0.165,inactive: -1.93,inactive: -2.25
OC(Cn1cnnn1)(c1ccc(F)cc1F)C(F)(F)c1ccc(-c2ccc(OC(F)(F)F)cc2)cn1 (stereo not given),inactive: 3.41,inactive: -0.578,inactive: 1.99
CCOc1nc(N)c2ncn(C3CCCCC3)c2n1,inactive: -0.954,inactive: -0.0558,inactive: 1.61
Cc1cccc(C)c1NC(=O)C1CCCCN1CC1CC1 (stereo not given),inactive: 1.91,inactive: -1.87,inactive: -1.44
O=C(O)CCC(/C=C\Cc1ccc(OCCCCOc2ccccc2)cc1)Sc1ccc(C(=O)O)cc1 (stereo not given),inactive: 0.477,inactive: 0.295,inactive: -0.155

Compound,TEAD-luciferase reporter activity (compound concentration: 200 nM),TEAD-luciferase reporter activity (compound concentration: 2 uM),TEAD-luciferase reporter activity (compound concentration: 10 uM)
Clc1ccccc1CNc1ccc(-n2ccnc2)nn1,inactive: -1.19,inactive: 0.94,active: 6.61
C[C@H](CC(=O)C[C@@H](C)[C@H]1C[C@H](O)C2(C)C3=C(C(=O)C[C@]12C)[C@@]1(C)CCC(=O)C(C)(C)[C@@H]1C[C@@H]3O)C(=O)O (stereo not given in full) [Ganoderic acid A],inactive: 3.7,inactive: 0.137,inactive: 1.12
COc1c(C)cnc(Cn2cc(C#CCC(C)(C)O)c3c(Cl)nc(N)nc32)c1C,inactive: -1.97,inactive: -1.93,inactive: -0.816
O=C(O)CC1Cc2ccc(OCCCNc3ccccn3)cc2CN(CC(F)(F)F)C1=O (stereo not given),inactive: -0.751,inactive: -1.03,inactive: -2.09
COc1cc2sc(C(=N)NO)cc2c(F)c1OC,inactive: -0.597,inactive: -0.212,inactive: 0.579
CN(C)CCOc1ccc2[nH]c(C(=O)NCC#Cc3ccc(C(=O)NO)cc3)cc2c1,active: 8.89,active: 16.5,active: 29.7
CN(C)CCNC(=O)c1cc(C(=O)N=C(N)N)cc(-c2cc(Cl)sc2Cl)c1,inactive: -0.708,inactive: -0.498,inactive: 2.01
CN1CCN(c2ccccc2/C=C2\SCCN(c3ccc(Cl)c(Cl)c3)C2=O)CC1,inactive: -0.334,inactive: 0.107,inactive: -1.16
CCCCc1nc(C)n(Cc2ccccc2C(=O)O)c(=O)c1Cc1ccc(-c2ccccc2-c2nnn[nH]2)cc1,inactive: -0.338,inactive: 1.85,inactive: -0.0397
CCOC(=O)[C@H](C)NP(=O)(N[C@@H](C)C(=O)OCC)c1ccc(-c2nc(N)sc2CC(C)C)o1 [Managlinat dialanetil],inactive: -1.15,inactive: 0.813,inactive: -0.556
COC(=O)N[C@H](C(=O)N1CCC[C@H]1c1nc2cc(-c3csc4c(-c5ccc(-c6cnc([C@@H]7CCCN7C(=O)[C@H](NC(=O)OC)c7ccccc7)[nH]6)cc5)csc34)ccc2[nH]1)C(C)C [Samatasvir],inactive: -0.959,inactive: 4.05,inactive: 3.72
O=c1c(O)c(-c2cc(O)c(O)c(O)c2)oc2cc(O)cc(O)c12 [myricetin],inactive: -0.661,inactive: -1.3,inactive: -1.52
CN([C@H]1c2cc(OCCCC(F)(F)F)ccc2OC(C)(C)[C@@H]1O)S(C)(=O)=O,inactive: 0.545,inactive: -0.951,inactive: -0.999
CN1C(C(=O)Nc2ccccn2)=C(OC(=O)/C=C/c2ccccc2)c2ccccc2S1(=O)=O,inactive: -0.655,inactive: -0.219,inactive: -0.342
O=C(CS(=O)Cc1ccco1)NC/C=C\COc1cc(CN2CCCCC2)ccn1 (stereo not given) [lafutidine],inactive: -0.147,inactive: 0.851,inactive: -1.1
CCn1cc(C(=O)O)c(=O)c2ccc(Cc3ccccc3)nc21,inactive: -0.413,inactive: 0.426,inactive: 2.8
COC(=O)[C@H]1[C@H]2C[C@@H]3c4[nH]c5cc(OC)ccc5c4CCN3C[C@H]2C[C@@H](OC(=O)c2cc(OC)c(OC)c(OC)c2)[C@@H]1OC [Reserpine],inactive: -1.32,inactive: -1.29,inactive: -0.302

# At a glance, some entries already given.
Compound,TEAD-luciferase reporter activity (compound concentration: 200 nM),TEAD-luciferase reporter activity (compound concentration: 2 uM),TEAD-luciferase reporter activity (compound concentration: 10 uM)
O=C(O)CC1Cc2ccc(OCCCNc3ccccn3)cc2CN(CC(F)(F)F)C1=O (stereo not given),inactive: -0.751,inactive: -1.03,inactive: -2.09
COc1cc2sc(C(=N)NO)cc2c(F)c1OC,inactive: -0.597,inactive: -0.212,inactive: 0.579
CN(C)CCOc1ccc2[nH]c(C(=O)NCC#Cc3ccc(C(=O)NO)cc3)cc2c1,active: 8.89,active: 16.5,active: 29.7
CN(C)CCNC(=O)c1cc(C(=O)N=C(N)N)cc(-c2cc(Cl)sc2Cl)c1,inactive: -0.708,inactive: -0.498,inactive: 2.01
CN1CCN(c2ccccc2/C=C2\SCCN(c3ccc(Cl)c(Cl)c3)C2=O)CC1,inactive: -0.334,inactive: 0.107,inactive: -1.16
CCCCc1nc(C)n(Cc2ccccc2C(=O)O)c(=O)c1Cc1ccc(-c2ccccc2-c2nnn[nH]2)cc1,inactive: -0.338,inactive: 1.85,inactive: -0.0397
CCOC(=O)[C@H](C)NP(=O)(N[C@@H](C)C(=O)OCC)c1ccc(-c2nc(N)sc2CC(C)C)o1 [Managlinat dialanetil],inactive: -1.15,inactive: 0.813,inactive: -0.556
